The list shows a part of the results.
Tests used:
Assay in all cases: log2 fold change, soluble protein after heating vs DMSO (PISA); higher = thermal stabilisation; K562 cells, 10 uM, 30 min; active = over 0.2 and 3.5 SD of the protein, either way, in both replicates (recomputed)
[1] = compound: CC[C@@H]1C(=O)N(C)c2cnc(Nc3ccc(C(=O)NC4CCN(C)CC4)cc3OC)nc2N1C1CCCC1
Method in brief: (§1)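 K562 cells (2×10^6 cells/mL) were treated with 10 μM compound for 30 min, and aliquots were heated for 3 min over 48°C-58°C. Pooled aliquots were extracted in PBS with 0.5% NP-40 at 4°C, and the supernatant after 21,000xg for 90 min was measured by TMTpro 16plex LC-MS/MS with channel sums equalised. Reported thermal stability, relative to control samples and from duplicates, is a log2 fold change.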

Protein sequences, listed by entry. Tags and fused reporters are not part of them. Lines headed by an entry give the natural chain unless they say otherwise; changes in a name come on top.
UniProt P14618, whole entry, looked up: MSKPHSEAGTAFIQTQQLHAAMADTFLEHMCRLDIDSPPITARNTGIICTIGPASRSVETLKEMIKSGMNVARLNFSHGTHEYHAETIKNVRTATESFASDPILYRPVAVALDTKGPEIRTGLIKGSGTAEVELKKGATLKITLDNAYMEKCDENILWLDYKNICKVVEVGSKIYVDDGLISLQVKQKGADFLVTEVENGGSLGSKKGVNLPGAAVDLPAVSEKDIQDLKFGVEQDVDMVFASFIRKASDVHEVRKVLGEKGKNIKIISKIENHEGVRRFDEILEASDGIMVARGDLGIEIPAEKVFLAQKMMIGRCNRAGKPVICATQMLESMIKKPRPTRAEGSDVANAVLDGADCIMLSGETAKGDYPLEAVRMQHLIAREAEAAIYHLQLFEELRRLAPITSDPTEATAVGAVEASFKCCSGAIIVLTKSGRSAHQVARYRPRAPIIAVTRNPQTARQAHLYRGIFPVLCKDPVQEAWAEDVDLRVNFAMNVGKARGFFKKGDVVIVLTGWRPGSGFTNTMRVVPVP
UniProt P27986, whole entry, looked up: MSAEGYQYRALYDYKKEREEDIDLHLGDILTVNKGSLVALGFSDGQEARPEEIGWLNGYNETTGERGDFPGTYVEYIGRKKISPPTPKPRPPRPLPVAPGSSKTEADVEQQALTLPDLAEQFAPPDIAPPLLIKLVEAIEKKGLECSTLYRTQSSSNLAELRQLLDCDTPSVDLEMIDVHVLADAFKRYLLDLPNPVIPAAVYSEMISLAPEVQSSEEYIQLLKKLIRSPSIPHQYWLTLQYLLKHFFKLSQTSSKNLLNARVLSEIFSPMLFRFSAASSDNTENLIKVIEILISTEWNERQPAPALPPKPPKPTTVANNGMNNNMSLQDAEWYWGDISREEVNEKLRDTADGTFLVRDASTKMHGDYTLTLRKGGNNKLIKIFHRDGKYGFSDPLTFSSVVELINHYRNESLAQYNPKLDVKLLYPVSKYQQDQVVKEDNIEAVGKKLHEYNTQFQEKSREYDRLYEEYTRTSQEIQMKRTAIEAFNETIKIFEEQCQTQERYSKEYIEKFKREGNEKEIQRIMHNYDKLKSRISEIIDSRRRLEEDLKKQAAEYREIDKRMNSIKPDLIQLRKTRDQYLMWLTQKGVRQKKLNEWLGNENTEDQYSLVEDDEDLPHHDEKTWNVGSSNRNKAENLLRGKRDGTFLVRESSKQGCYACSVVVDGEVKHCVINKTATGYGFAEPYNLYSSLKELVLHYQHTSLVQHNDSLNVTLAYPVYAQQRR
UniProt P56589: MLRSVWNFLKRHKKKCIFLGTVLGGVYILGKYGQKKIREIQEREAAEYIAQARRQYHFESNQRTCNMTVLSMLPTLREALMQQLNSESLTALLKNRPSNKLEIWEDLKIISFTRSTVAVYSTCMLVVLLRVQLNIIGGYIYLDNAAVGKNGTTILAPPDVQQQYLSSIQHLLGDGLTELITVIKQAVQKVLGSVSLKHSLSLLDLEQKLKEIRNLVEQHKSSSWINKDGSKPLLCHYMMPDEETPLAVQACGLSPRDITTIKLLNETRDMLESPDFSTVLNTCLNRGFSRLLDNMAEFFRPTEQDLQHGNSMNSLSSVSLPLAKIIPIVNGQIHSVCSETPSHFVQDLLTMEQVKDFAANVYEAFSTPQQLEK
UniProt P19174: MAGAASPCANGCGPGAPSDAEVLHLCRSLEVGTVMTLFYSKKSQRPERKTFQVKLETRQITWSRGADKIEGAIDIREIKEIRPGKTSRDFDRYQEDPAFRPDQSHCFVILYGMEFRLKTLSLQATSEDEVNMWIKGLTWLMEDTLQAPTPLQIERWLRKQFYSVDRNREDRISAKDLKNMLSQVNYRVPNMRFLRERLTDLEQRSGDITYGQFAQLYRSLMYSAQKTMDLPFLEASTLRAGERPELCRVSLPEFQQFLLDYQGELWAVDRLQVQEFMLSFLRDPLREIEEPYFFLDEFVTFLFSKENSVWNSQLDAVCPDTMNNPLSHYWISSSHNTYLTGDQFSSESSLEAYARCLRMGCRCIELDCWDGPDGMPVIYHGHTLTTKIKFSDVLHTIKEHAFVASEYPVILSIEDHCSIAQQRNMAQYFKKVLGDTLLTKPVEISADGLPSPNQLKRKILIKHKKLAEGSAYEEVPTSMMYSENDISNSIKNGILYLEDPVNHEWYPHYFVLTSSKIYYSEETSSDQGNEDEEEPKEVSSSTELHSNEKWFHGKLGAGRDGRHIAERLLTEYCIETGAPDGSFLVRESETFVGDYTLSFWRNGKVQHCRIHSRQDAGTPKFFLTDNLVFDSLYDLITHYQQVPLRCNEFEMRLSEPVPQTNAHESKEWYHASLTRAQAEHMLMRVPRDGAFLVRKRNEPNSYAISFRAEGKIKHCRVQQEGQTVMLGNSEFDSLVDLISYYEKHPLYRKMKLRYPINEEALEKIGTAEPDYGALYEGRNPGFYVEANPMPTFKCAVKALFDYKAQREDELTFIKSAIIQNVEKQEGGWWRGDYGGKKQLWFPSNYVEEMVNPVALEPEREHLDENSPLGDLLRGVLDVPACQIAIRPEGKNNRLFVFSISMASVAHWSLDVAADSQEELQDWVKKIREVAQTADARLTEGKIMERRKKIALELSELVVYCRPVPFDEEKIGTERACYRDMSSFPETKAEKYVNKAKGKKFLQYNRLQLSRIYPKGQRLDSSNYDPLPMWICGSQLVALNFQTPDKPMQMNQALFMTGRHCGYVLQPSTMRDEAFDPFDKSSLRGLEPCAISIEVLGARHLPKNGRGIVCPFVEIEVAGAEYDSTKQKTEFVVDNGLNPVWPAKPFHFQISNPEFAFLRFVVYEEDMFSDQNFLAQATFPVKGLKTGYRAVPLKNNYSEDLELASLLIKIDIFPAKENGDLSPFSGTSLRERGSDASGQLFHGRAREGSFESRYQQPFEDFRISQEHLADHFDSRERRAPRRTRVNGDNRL
UniProt Q6P4A8: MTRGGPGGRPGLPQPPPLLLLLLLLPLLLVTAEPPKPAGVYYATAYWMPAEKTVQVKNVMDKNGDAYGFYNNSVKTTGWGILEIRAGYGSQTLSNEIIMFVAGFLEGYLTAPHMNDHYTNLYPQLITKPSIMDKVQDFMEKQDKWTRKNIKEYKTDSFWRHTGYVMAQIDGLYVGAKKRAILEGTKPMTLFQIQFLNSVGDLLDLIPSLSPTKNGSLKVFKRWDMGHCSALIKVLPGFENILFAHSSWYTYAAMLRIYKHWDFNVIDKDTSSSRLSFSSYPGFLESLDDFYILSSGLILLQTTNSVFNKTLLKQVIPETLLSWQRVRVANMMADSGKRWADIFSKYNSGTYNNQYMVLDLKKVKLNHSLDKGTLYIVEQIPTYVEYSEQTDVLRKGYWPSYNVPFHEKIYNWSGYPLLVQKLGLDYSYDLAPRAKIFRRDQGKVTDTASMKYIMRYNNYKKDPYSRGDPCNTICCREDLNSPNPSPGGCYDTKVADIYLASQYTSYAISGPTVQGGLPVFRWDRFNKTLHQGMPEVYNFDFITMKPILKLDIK
UniProt Q32M88: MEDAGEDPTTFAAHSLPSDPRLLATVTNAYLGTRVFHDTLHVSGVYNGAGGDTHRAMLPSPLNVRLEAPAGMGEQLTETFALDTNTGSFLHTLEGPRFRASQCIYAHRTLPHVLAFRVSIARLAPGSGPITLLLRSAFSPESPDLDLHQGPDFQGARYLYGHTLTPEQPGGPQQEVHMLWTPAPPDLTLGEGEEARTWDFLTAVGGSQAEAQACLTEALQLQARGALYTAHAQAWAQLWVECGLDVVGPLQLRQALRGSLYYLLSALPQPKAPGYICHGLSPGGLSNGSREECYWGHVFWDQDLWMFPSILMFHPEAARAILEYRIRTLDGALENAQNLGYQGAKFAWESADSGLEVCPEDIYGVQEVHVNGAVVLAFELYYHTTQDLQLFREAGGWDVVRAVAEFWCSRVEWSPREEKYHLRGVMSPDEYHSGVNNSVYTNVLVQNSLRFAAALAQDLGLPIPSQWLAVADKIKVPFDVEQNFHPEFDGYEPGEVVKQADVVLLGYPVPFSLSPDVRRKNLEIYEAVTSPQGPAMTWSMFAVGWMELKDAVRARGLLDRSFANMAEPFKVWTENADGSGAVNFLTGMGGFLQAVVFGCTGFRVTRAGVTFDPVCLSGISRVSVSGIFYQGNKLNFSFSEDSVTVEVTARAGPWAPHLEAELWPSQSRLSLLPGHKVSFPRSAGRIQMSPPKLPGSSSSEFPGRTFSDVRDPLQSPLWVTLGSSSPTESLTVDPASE
UniProt O00625: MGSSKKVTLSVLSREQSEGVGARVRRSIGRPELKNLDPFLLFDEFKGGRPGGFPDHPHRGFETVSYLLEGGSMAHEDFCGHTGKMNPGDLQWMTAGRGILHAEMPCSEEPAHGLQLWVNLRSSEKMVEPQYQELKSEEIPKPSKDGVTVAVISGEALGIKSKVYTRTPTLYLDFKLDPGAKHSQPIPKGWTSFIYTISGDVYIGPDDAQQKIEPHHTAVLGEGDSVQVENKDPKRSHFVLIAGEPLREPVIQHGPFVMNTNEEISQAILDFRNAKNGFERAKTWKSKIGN
UniProt P48426: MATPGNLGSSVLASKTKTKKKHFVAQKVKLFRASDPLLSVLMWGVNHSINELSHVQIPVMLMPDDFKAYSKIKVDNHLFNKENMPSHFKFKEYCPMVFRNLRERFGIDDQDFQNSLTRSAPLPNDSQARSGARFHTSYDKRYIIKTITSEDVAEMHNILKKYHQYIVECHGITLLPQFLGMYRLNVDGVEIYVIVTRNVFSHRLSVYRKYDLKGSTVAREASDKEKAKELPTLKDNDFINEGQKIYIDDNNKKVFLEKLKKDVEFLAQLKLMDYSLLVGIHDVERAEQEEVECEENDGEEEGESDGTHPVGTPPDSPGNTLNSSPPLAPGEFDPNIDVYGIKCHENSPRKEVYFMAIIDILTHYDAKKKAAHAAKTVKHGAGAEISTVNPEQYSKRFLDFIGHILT
UniProt Q8N4L2: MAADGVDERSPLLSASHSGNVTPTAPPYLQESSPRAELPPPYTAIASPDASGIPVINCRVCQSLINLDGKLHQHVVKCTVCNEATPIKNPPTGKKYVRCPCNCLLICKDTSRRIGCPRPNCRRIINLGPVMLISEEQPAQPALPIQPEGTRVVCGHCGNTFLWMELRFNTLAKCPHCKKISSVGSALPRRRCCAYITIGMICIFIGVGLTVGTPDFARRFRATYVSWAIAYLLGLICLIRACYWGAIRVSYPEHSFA

volasertib = compound: CC[C@@H]1C(=O)N(C)c2cnc(Nc3ccc(C(=O)N[C@H]4CC[C@H](N5CCN(CC6CC6)CC5)CC4)cc3OC)nc2N1C(C)C [volasertib]
Method in brief: as §1

[2] = compound: CC[C@H](C)N1C=C(C2=C(C=C(C=C21)C3=CN=C(C=C3)N4CCNCC4)C(=O)NCC5=C(C=C(NC5=O)C)C)C
Method in brief: as §1

epoxomicin = compound: CC[C@H](C)[C@@H](C(=O)N[C@@H]([C@@H](C)O)C(=O)N[C@@H](CC(C)C)C(=O)[C@]1(CO1)C)NC(=O)[C@H]([C@@H](C)CC)N(C)C(=O)C [epoxomicin]
Method in brief: as §1

[3] = compound: CCn1cc(-c2ccnc3[nH]c(-c4cccc(CN(C)C)c4)cc23)c(-c2ccc(NC(=O)N(C)C)cc2)n1
Method in brief: as §1

[4] = compound: CN(C)CC(=O)Nc1ccc2[nH]c(=O)c3ccccc3c2c1
Method in brief: as §1

[5] = compound: CN1C2=C(C3=C1C(=O)N(N=C3)CC4=CC(=CC=C4)N)SC(=C2)S(=O)C
Method in brief: as §1

[6] = compound: CN1CCC(CNc2ccc3ncc(-c4cccc(OC(F)(F)F)c4)n3n2)CC1
Method in brief: as §1

saracatinib = compound: CN1CCN(CCOc2cc(OC3CCOCC3)c3c(Nc4c(Cl)ccc5c4OCO5)ncnc3c2)CC1 [saracatinib]
Method in brief: as §1

sotrastaurin = compound: CN1CCN(c2nc(C3=C(c4c[nH]c5ccccc45)C(=O)NC3=O)c3ccccc3n2)CC1 [sotrastaurin]
Method in brief: as §1

Tubastatin A = compound: CN1CCc2c(c3ccccc3n2Cc2ccc(C(=O)NO)cc2)C1 [Tubastatin A]
Method in brief: as §1

[7] = compound: CNC(=O)C1=CC=CC=C1NC2=NC(=NC=C2Cl)NC3=C(C=C(C=C3)N4CCOCC4)OC
Method in brief: as §1

defactinib = compound: CNC(=O)c1ccc(Nc2ncc(C(F)(F)F)c(NCc3nccnc3N(C)S(C)(=O)=O)n2)cc1 [defactinib]
Method in brief: as §1

rucaparib = compound: CNCc1ccc(-c2[nH]c3cc(F)cc4c3c2CCNC4=O)cc1 [rucaparib]
Method in brief: as §1

[8] = compound: CNc1nc(-c2ccc3c(N)n[nH]c3c2)cc(N2C[C@@H](C(=O)NC3CCCCC3)CC[C@H]2C)n1
Method in brief: as §1

encorafenib = compound: COC(=O)N[C@@H](C)CNc1nccc(-c2cn(C(C)C)nc2-c2cc(Cl)cc(NS(C)(=O)=O)c2F)n1 [encorafenib]
Method in brief: as §1

[9] = compound: COC(=O)[C@H](CCSC)NC(=O)C1=C(C=C(C=C1)NC[C@H](CS)N)C2=CC=CC=C2
Method in brief: as §1

[10] = compound: CCn1c(C(=O)N(C2CC2)C2CC2)cc2c3c(ncn3C)c(Nc3cc(C)n(C)n3)nc21
Method in brief: as §1

alvocidib = compound: CN1CC[C@H](c2c(O)cc(O)c3c(=O)cc(-c4ccccc4Cl)oc23)[C@H](O)C1 [alvocidib]
Method in brief: as §1

Target	log2 fold change [1]	log2 fold change (volasertib)	log2 fold change [2]	log2 fold change (epoxomicin)	log2 fold change [3]	log2 fold change [4]	log2 fold change [5]	log2 fold change [6]	log2 fold change (saracatinib)	log2 fold change (sotrastaurin)	log2 fold change (Tubastatin A)	log2 fold change [7]	log2 fold change (defactinib)	log2 fold change (rucaparib)	log2 fold change [8]	log2 fold change (encorafenib)	log2 fold change [9]	log2 fold change [10]	log2 fold change (alvocidib)
PKM (UniProt P14618)	inactive: 0.018	inactive: 0.037	inactive: -0.035	inactive: 0.001	inactive: -0.007	inactive: -0.015	inactive: 0.002	inactive: -0.017	inactive: 0.012	inactive: 0.024	inactive: -0.004	inactive: -0.028	inactive: -0.01	inactive: -0.052	inactive: -0.007	inactive: -0.01	inactive: 0.011	–	–
PIK3R1 (UniProt P27986)	inactive: -0.04	inactive: -0.142	inactive: -0.018	inactive: 0.036	inactive: -0.072	inactive: -0.002	inactive: -0.064	inactive: 0.127	inactive: 0.014	inactive: 0.001	inactive: -0.017	inactive: -0.014	inactive: -0.06	inactive: 0.052	inactive: 0.022	inactive: 0.08	inactive: -0.024	–	–
PEX3 (UniProt P56589)	inactive: 0.135	inactive: -0.189	inactive: -0.05	inactive: -0.043	–	inactive: 0.063	inactive: 0.076	–	inactive: 0.044	inactive: 0	inactive: 0.202	inactive: -0.11	inactive: -0.176	inactive: 0.264	inactive: 0.108	inactive: 0.023	inactive: 0.116	inactive: -0.104	inactive: 0.045
PLCG1 isoform 2 (UniProt P19174)	inactive: -0.031	inactive: -0.25	inactive: 0.05	inactive: 0.014	inactive: -0.187	inactive: 0.085	inactive: 0.083	active: -0.412	inactive: -0.131	inactive: -0.005	inactive: 0.1	inactive: -0.048	inactive: -0.128	inactive: 0.088	inactive: 0.054	inactive: 0.012	inactive: -0.007	–	–
PLBD1 (UniProt Q6P4A8)	inactive: -0.063	inactive: -0.076	inactive: -0.022	inactive: -0.016	inactive: -0.028	inactive: 0.088	inactive: -0.01	active: -0.352	inactive: 0.024	inactive: 0.071	inactive: -0.013	inactive: 0.054	inactive: 0.023	inactive: 0.034	inactive: 0.001	inactive: 0.001	inactive: 0	–	–
PGGHG (UniProt Q32M88)	inactive: 0.012	inactive: 0.098	inactive: 0.051	inactive: 0.011	inactive: -0.025	inactive: 0.069	inactive: -0.025	inactive: -0.096	inactive: 0.061	inactive: -0.014	inactive: 0.04	inactive: -0.029	inactive: 0.127	inactive: 0.02	inactive: 0.017	inactive: -0.086	inactive: -0.02	–	–
PIR (UniProt O00625)	inactive: -0.041	inactive: -0.069	inactive: -0.028	inactive: 0.034	inactive: -0.006	inactive: 0.031	inactive: -0.06	inactive: -0.052	inactive: 0.025	inactive: -0.01	active: -0.284	inactive: -0.002	inactive: -0.09	inactive: 0.045	inactive: 0	inactive: -0.045	inactive: 0.012	–	–
PIP4K2A (UniProt P48426)	active: 0.602	active: 0.768	inactive: -0.055	inactive: 0.018	inactive: -0.052	inactive: -0.021	inactive: 0.04	inactive: 0.114	inactive: 0.048	inactive: 0.011	inactive: -0.001	inactive: 0.084	inactive: 0.166	inactive: 0.013	inactive: -0.132	inactive: 0.1	inactive: -0.056	–	–
PIP4P2 (UniProt Q8N4L2)	inactive: -0.092	inactive: -0.054	inactive: -0.07	inactive: -0.192	inactive: 0.004	inactive: -0.018	inactive: -0.016	active: -0.375	inactive: 0.056	inactive: -0.003	inactive: 0.072	inactive: -0.007	inactive: 0.004	inactive: -0.003	inactive: -0.106	inactive: -0.04	inactive: 0.093	–	–

As a short view, some entries already given:
Target	log2 fold change [1]	log2 fold change (volasertib)	log2 fold change [2]	log2 fold change (epoxomicin)	log2 fold change [3]	log2 fold change [4]	log2 fold change [5]	log2 fold change [6]	log2 fold change (saracatinib)	log2 fold change (sotrastaurin)	log2 fold change (Tubastatin A)	log2 fold change [7]	log2 fold change (defactinib)	log2 fold change (rucaparib)	log2 fold change [8]	log2 fold change (encorafenib)	log2 fold change [9]	log2 fold change [10]	log2 fold change (alvocidib)
PKM (UniProt P14618)	inactive: 0.018	inactive: 0.037	inactive: -0.035	inactive: 0.001	inactive: -0.007	inactive: -0.015	inactive: 0.002	inactive: -0.017	inactive: 0.012	inactive: 0.024	inactive: -0.004	inactive: -0.028	inactive: -0.01	inactive: -0.052	inactive: -0.007	inactive: -0.01	inactive: 0.011	–	–
PIK3R1 (UniProt P27986)	inactive: -0.04	inactive: -0.142	inactive: -0.018	inactive: 0.036	inactive: -0.072	inactive: -0.002	inactive: -0.064	inactive: 0.127	inactive: 0.014	inactive: 0.001	inactive: -0.017	inactive: -0.014	inactive: -0.06	inactive: 0.052	inactive: 0.022	inactive: 0.08	inactive: -0.024	–	–

— the supplement of paper PMC10849652
